Laboratory results: PMC5437010
Results are given in words; binding and its absence hold for the method and conditions named.

Amino acid sequences for entries named in this document (tags omitted). A change or cut given only in a name is not applied to a line headed by its entry. Residues count along the entry.
UniProt P03951: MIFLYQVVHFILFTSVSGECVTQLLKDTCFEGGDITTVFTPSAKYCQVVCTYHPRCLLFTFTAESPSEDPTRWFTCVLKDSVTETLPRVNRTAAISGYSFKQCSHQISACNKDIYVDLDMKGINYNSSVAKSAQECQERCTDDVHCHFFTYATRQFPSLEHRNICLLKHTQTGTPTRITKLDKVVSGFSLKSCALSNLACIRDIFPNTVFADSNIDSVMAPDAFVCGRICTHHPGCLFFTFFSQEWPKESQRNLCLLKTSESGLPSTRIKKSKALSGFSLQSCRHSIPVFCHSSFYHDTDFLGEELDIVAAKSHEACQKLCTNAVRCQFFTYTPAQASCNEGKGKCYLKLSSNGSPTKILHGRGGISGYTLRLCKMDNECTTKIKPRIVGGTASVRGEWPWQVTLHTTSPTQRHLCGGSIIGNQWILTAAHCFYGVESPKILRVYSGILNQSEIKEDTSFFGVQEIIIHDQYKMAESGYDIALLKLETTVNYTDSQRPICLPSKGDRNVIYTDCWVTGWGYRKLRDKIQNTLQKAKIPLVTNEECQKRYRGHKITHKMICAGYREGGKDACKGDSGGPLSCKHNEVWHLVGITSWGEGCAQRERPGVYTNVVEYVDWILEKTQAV
UniProt P01008, residues 33-464: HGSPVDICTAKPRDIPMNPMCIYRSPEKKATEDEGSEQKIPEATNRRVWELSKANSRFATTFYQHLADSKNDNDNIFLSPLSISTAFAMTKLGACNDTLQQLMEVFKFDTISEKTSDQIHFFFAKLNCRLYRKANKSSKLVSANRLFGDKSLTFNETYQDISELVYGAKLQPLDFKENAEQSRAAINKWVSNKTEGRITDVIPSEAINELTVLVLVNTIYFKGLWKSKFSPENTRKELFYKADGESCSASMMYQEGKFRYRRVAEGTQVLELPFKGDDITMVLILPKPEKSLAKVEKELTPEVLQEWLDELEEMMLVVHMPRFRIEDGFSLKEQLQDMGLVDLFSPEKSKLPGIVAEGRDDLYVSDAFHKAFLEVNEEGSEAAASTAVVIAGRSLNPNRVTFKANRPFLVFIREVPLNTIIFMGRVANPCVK

Target: Factor XIa (human) (UniProt P03951)
Test: condition: only with 10 uM FELIAP (DNA aptamer against FXIa); SDS-PAGE of a denaturation-resistant covalent complex; 200 nM FXIa pre-incubated with 10 uM FELIAP (DNA aptamer) at 37 °C for 5 min, then 2 uM antithrombin and 2 U/mL sodium heparin for 1 or 5 min; reduced SDS-PAGE, Coomassie stain; both purified

- binding: no binding
Substance: antithrombin (from UniProt P01008 33-464)
